Patent publication US20190040130A1
Where a chain is given by its changes, count along the chain named. No constants are given. Whether binding was seen depends on the method and setting. Some entries that bind do so weakly or less than the wild type.

The chains behind the UniProt entries cited, without tags or fusion partners. Where a name states a change or a piece, a line headed by the entry shows the natural chain unless it says otherwise.
UniProt Q9NZC2: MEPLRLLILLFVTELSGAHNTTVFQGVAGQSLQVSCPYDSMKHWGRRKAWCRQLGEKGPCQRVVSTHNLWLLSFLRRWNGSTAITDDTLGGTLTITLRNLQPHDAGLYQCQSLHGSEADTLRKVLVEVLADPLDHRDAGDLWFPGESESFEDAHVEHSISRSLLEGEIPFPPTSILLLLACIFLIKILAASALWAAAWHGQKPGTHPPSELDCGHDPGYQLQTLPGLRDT

B1: AL2p-h23 (antibody, IgG1, V domains shown)
VH: QVQLVQSGAEVKKPGASLKISCKASGYAFSSSWMNWVRQAPGQGLEWIGRIYPGDGDTNYAQKFQGRATLTADTSTSTAYMELSSLRSEDTAVYYCARLLRNQPGESYAMDYWGQGALVTVSS
VL: DVVMTQTPLSLSVTPGQPASISCRSSQSLVHSNGYTYLHWYLQKPGQSPQLLIYKVSNRFSGVPDRFSGSGSGTDFTLKISRVEAEDLGVYFCSQSTRVPYTFGQGTKLEIK
B2: AL2p-h27 (antibody, IgG1, V domains shown)
VH: B1 VH with L18V, I20V, A61N, Q62G, K63E, Q65R, G66V, Y95F, A117T
VL: B1 VL
B3: AL2p-h24 (antibody, IgG1, V domains shown)
VH: B1 VH with K12V, A61N, Y95F
VL: B1 VL
B4: AL2p-h32 (antibody, IgG1, V domains shown)
VH: QVQLVQSGAEVKKPGSSVKVSCKASGYAFSSSWMNWVRQAPGQGLEWIGRIYPGDGDTNYNGEFRVRATLTADTSTTTAYMELSSLRSEDTAVYFCARLLRNQPGESYAMDYWGQGTLVTVSS
VL: B1 VL
B5: AL2p-h19 (antibody, IgG1, V domains shown)
VH: B1 VH with A16S, L18V, I20V, I48M, L70I, A117T
VL: B1 VL with V2I, L88V, F92Y
B6: AL2p-h22 (antibody, IgG1, V domains shown)
VH: B1 VH with L18V, I20V, A68V, L70M, A79V, A117T
VL: B1 VL
B7: AL2p-h90 (antibody, IgG1, V domains shown)
VH: B1 VH with L18V, I20V, G44R, A68V, L70I, T76A, A117T
VL: DVQMTQSPSSLSASVGDRVTITCRSSQSLVHSNGYTYLHWYQQKPGKSPKLLIYKVSNRFSGVPSRFSGSGSGTDFTLTISSLQPEDFATYYCSQSTRVPYTFGGGTKVEIK
B8: AL2p-h35 (antibody, IgG1, V domains shown)
VH: B1 VH with A16S, L18V, I20V, I48M, L70I, A117T
VL: B1 VL
B9: AL2p-h25 (antibody, IgG1, V domains shown)
VH: B1 VH with A61N, Q62G, K63E, Q65R, G66V
VL: B1 VL
B10: AL2p-h34 (antibody, IgG1, V domains shown)
VH: B1 VH with A16S, L18V, I20V, L70I, Y95F, A117T
VL: B1 VL
B11: AL2p-h21 (antibody, IgG1, V domains shown)
VH: B1 VH with L18V, I20V, I48M, A68V, L70M, A72R, A79V, A117T
VL: B1 VL
B12: AL2p-h33 (antibody, IgG1, V domains shown)
VH: B4 VH with N61A, G62Q, E63K, R65Q, V66G
VL: B1 VL
B13: AL2p-h77 (antibody, IgG1, V domains shown)
VH: B1 VH with L18V, I20V, G44R, A68V, L70I, T76A, A117T
VL: DVVMTQSPDSLAVSLGERATINCRSSQSLVHSNGYTYLHWYQQKPGQSPKLLIYKVSNRFSGVPDRFSGSGSGTDFTLTISSLQAEDVAVYYCSQSTRVPYTFGGGTKVEIK
B14: AL2p-h30 (antibody, IgG1, V domains shown)
VH: B1 VH with L18V, I20V, I48M, A68V, L70M, A117T
VL: B1 VL
B15: AL2p-h59 (antibody, IgG1, V domains shown)
VH: B1 VH with L18V, I20V, G44R, I48M, A68V, L70I, A72R, T76A, A117T
VL: B1 VL with V2I, T7S, S12P, Q17E, L88V, F92Y, Q105G, L109V
B16: AL2p-h26 (antibody, IgG1, V domains shown)
VH: B1 VH with L18V, I20V, G44R, A68V, L70I, T76A, A117T
VL: B1 VL
B17: AL2p-h76 (antibody, IgG1, V domains shown)
VH: B1 VH with L18V, I20V, G44R, L70I, T76A, Y95F, A117T
VL: B13 VL
B18: AL2p-47 (antibody, IgG1, V domains shown)
VH: QVQLVQSGAEVKKPGSSVKVSCKASGYAFSSDWMNWVRQAPGQGLEWMGRIYPGEGDTNYARKFHGRVTITADESTSTAYMELSSLRSEDTAVYYCARLLRNKPGESYAMDYWGQGTLVTVSS
VL: B1 VL with S25T, G34A, F60V, L88V, F92Y
B19: AL2p-37 (antibody, IgG1, V domains shown)
VH: B1 VH with L18V, I20V, S32Q, G44R, D55G, Q62G, A68V, L70I, T76A, A117T
VL: B13 VL
B20: AL2p-61 huIgG1 (antibody, V domains shown)
VH: B18 VH with D32Q, H65Q, K103Q
VL: GVVMTQTPLSLSVTPGQPASISCRSSQSLVHSNQYTYLHWYLQKPGQSPQLLIYKVSNRRSGVPDRFSGSGSGTDFTLKISRVEAEDVGVYYCSQSTRVPYTFGQGTKLEIKR
B21: AL2p-47 huIgG1 (antibody, V domains shown)
VH: B18 VH
VL: B20 VL with G1D, S25T, Q34A, R60V

molecular target: human TREM2 expressed on cells (human) (UniProt Q9NZC2); test: FACS

Row | binding | Binder
1 | binds | B1
2 | binds | B2
3 | binds | B3
4 | binds | B4
5 | binds | B5
6 | binds | B6
7 | binds | B7
8 | binds | B8
9 | binds | B9
10 | binds | B10
11 | binds | B11
12 | binds | B12
13 | binds | B13
14 | binds | B14
15 | binds | B15
16 | binds | B16
17 | binds | B17

molecular target: human TREM2 expressed on cells (human) (UniProt Q9NZC2); test: FACS, BW cells

Row | binding | Binder
18 | binds | B18
19 | binds | B19
20 | binds | B20
21 | binds | B21
